{"source": "patent EP4592253A1", "about": "“PROCESS FOR BREAKING UP ORGANIC PARTICLE AND MAGNETIC MATERIAL AGGREGATES USING AQUEOUS SOLUTIONS OF CARBONATES” (Captioplastic, S.L., priority 2024, dated 2025)", "assay": "Reuse of recovered magnetic iron material for magnetic separation of polyethylene microplastics from water", "settings": "for microplastic capture efficiency with the reused magnetic iron material: Figures 7, 8, 94 g/L of KHCO3 or 107.8 g/L of Na2CO3, washed with 1 L of water; for Formation of an aggregate again / MP capture efficiency with the reused magnetite (%): salt 0.95 M; for Formation of an aggregate again: washed with 1 L of water; for MP capture efficiency with the reused magnetite (%): PE 20 mg, reused magnetite 40 mg"}
{"smiles": "O=C([O-])O.[K+]", "note": "[KHCO3, potassium bicarbonate]", "values": [{"measurement": "microplastic capture efficiency with the reused magnetic iron material", "result": 99, "unit": "%"}]}
{"smiles": "O=C([O-])[O-].[Na+].[Na+]", "note": "[Na2CO3, sodium carbonate]", "values": [{"measurement": "microplastic capture efficiency with the reused magnetic iron material", "result": 99, "unit": "%"}]}
{"smiles": "[Cl-].[Na+]", "note": "[NaCl, sodium chloride, reference compound]", "values": [{"measurement": "Formation of an aggregate again", "setting": "reuse cycle 1", "result": "No"}]}
{"smiles": "O=P([O-])(O)O.[Na+]", "note": "[NaH2PO4, sodium biphosphate, reference compound]", "values": [{"measurement": "Formation of an aggregate again", "setting": "reuse cycle 1", "result": "No"}]}
{"smiles": "O=C([O-])O.[Na+]", "note": "[NaHCO3]", "values": [{"measurement": "efficiency of the reuse of the magnetic iron material", "setting": "Figure 2, reused up to at least 10 times, treatment with abundant water", "result": "> 95", "unit": "%"}, {"measurement": "MP capture efficiency with the reused magnetite (%)", "setting": "reuse cycle 1", "result": "> 95", "unit": "%"}, {"measurement": "Formation of an aggregate again", "setting": "reuse cycle 1", "result": "Yes"}, {"measurement": "MP capture efficiency with the reused magnetite (%)", "setting": "reuse cycle 2", "result": "> 95", "unit": "%"}, {"measurement": "Formation of an aggregate again", "setting": "reuse cycle 2", "result": "Yes"}, {"measurement": "MP capture efficiency with the reused magnetite (%)", "setting": "reuse cycle 3", "result": "> 95", "unit": "%"}, {"measurement": "Formation of an aggregate again", "setting": "reuse cycle 3", "result": "Yes"}, {"measurement": "MP capture efficiency with the reused magnetite (%)", "setting": "reuse cycle 4", "result": "> 95", "unit": "%"}, {"measurement": "Formation of an aggregate again", "setting": "reuse cycle 4", "result": "Yes"}, {"measurement": "MP capture efficiency with the reused magnetite (%)", "setting": "reuse cycle 5", "result": "> 95", "unit": "%"}, {"measurement": "Formation of an aggregate again", "setting": "reuse cycle 5", "result": "Yes"}, {"measurement": "MP capture efficiency with the reused magnetite (%)", "setting": "reuse cycle 6", "result": "> 95", "unit": "%"}, {"measurement": "Formation of an aggregate again", "setting": "reuse cycle 6", "result": "Yes"}, {"measurement": "MP capture efficiency with the reused magnetite (%)", "setting": "reuse cycle 7", "result": "> 95", "unit": "%"}, {"measurement": "Formation of an aggregate again", "setting": "reuse cycle 7", "result": "Yes"}, {"measurement": "MP capture efficiency with the reused magnetite (%)", "setting": "reuse cycle 8", "result": "> 95", "unit": "%"}, {"measurement": "Formation of an aggregate again", "setting": "reuse cycle 8", "result": "Yes"}, {"measurement": "MP capture efficiency with the reused magnetite (%)", "setting": "reuse cycle 9", "result": "> 95", "unit": "%"}, {"measurement": "Formation of an aggregate again", "setting": "reuse cycle 9", "result": "Yes"}, {"measurement": "MP capture efficiency with the reused magnetite (%)", "setting": "reuse cycle 10", "result": "> 95", "unit": "%"}, {"measurement": "Formation of an aggregate again", "setting": "reuse cycle 10", "result": "Yes"}]}
